This is one part of the list.

The chains behind the UniProt entries cited, without tags or fusion partners.
UniProt Q0JBA9, entry or part of it: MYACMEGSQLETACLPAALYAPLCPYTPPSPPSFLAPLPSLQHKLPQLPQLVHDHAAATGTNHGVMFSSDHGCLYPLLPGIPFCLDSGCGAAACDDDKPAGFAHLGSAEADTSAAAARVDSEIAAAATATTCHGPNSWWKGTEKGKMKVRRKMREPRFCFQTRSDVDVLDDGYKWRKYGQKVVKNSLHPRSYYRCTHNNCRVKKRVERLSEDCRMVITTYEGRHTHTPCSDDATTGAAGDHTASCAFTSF

Our source for the binding signal values is publication PMC7819943, “Rice protein-binding microarrays: a tool to detect cis-acting elements near promoter regions in rice”.

The target in this test is OsWRKY34 (Oryza sativa, UniProt Q0JBA9 1-250). The experiment in a line: protein-binding microarray (RPBM); PBS, 2% BSA, 51.3 ng/ul salmon testes DNA, 50 uM zinc acetate, 200 nM TF, 25 C, 1 h; high values mean tight binding. Conditions: protein: recombinant; tags: N-terminal polyhistidine and DsRed monomer fusion (pET32a); label: CyDye5-dUTP incorporated in the synthesized complementary strand; 3' TTTTT single-stranded linker to array surface; dsDNA, one strand shown. Put shortly:
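Transcription factors were made in E. coli BL21-CodonPlus as N-terminal fusions to a polyhistidine tag and DsRed, then purified on Ni–NTA. After primer extension with Cy5-dUTP and blocking with 2% BSA, a custom Agilent array was exposed for 1 h at 25 °C to 200 nM protein in PBS, 2% BSA, salmon testes DNA and 50 µM zinc acetate. Washed arrays were scanned on an Axon 4000B, and the binding signal is per-feature fluorescence intensity in arbitrary units.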
Consider “ATTATTAATAAAACTCATTCTATAACTCTGGACTAATTCGCGGAGTCACCTAGTGCAG”, for which the binding signal was 8200 fluorescence intensity (a.u.).
Take “GATCAAGCGGAAGTGGGTTGACTTGTCATTGGGTTTAGGTCGGAGTCACCTAGTGCAG”: the binding signal was 8070 fluorescence intensity (a.u.).
For the sequence “CTCTTGATTTCAAGCGTTGATGCTGCACTTTACACACAAACGGAGTCACCTAGTGCAG”, the binding signal is 8210 fluorescence intensity (a.u.).
Consider “ATCCTTCTCACCTATATGTTTATTACATAGCATCCTAATTCGGAGTCACCTAGTGCAG”, for which the binding signal is 8090 fluorescence intensity (a.u.).
For the sequence “TTTTTAGGGTGTGGGTATTAGTTGGAAAATACAATAAATGCGGAGTCACCTAGTGCAG”, the binding signal is 9530 fluorescence intensity (a.u.).
With “TGAATGACAAACGGGTCCCACGCATATTTTTTTATTTCTACGGAGTCACCTAGTGCAG”, the binding signal is 9090 fluorescence intensity (a.u.).
Then “CATTTGTAGTTTTATGTTTATTCTTTCGTCATCGAGTATCCGGAGTCACCTAGTGCAG”, with 8640 fluorescence intensity (a.u.); and “CACCACCCCGGCCGCTTCCGCCACTTCACTCCACTCCACACGGAGTCACCTAGTGCAG”, with 13200 fluorescence intensity (a.u.).
Turning to “AGTATGTTCTCTTTTCTCATGGCGTTTGCAACGTTGTCATCGGAGTCACCTAGTGCAG”, the binding signal is 14800 fluorescence intensity (a.u.).
As for “CGGGCTCTGGTTTTACCGAATAAATGCTCTGGGCCTAATACGGAGTCACCTAGTGCAG”, the binding signal is 8020 fluorescence intensity (a.u.).
Consider “CGGAGAGAGTACCATACTTCCATCCCTGTATCTACAGTAACGGAGTCACCTAGTGCAG”, for which the binding signal was 8600 fluorescence intensity (a.u.).
In the case of “ACCCACGTATAATTTCATCATATCTAGACATATGTACTATCGGAGTCACCTAGTGCAG”, the binding signal is 9010 fluorescence intensity (a.u.).
For “AATCACAACTTTGCTTTCATCCACGTCGACAACATATACACGGAGTCACCTAGTGCAG”, the binding signal was 8420 fluorescence intensity (a.u.).
Then “ATCATTGCCATAAAGCATTATTGTCATTCTTTGATGTTGACGGAGTCACCTAGTGCAG”, with 8340 fluorescence intensity (a.u.).
On to “GTCGCCCGCCCGTGTCCACCACCCACTGCCGGTCATCCACCGGAGTCACCTAGTGCAG”, for which the binding signal is 8330 fluorescence intensity (a.u.).
Regarding “CTGCGTTTCTATTGGTATTTGACTCTTTGTCTCTTCGGGTCGGAGTCACCTAGTGCAG”, the binding signal is 10300 fluorescence intensity (a.u.).
Take “GATGGGCCCGTTTCTGTCTCCAATTCCAGCCCGTCTCTTACGGAGTCACCTAGTGCAG”: the binding signal is 8470 fluorescence intensity (a.u.).
The figure for “CCCTTCATGTGCAAGCCACTGCCTCCACCCTCACACTGGACGGAGTCACCTAGTGCAG” is 9220 fluorescence intensity (a.u.); for “GATTGTTTGGTAGCACACTGCCTTGGTTGGGTTGATGATCCGGAGTCACCTAGTGCAG” it is 11100 fluorescence intensity (a.u.); for “GACTATAAACATCATAGGGTGATAGGGGTCGTGGTAGGTGCGGAGTCACCTAGTGCAG” it is 10300 fluorescence intensity (a.u.).
As to “ATCGCCATTCCACCCGCTGCCGCCTCCGCCGCCGCCGTAGCGGAGTCACCTAGTGCAG”, the binding signal is 11000 fluorescence intensity (a.u.).
In the case of “TTCAACCACACACATGTCCACACACAGCCCAATAAAACTCCGGAGTCACCTAGTGCAG”, the binding signal is 9480 fluorescence intensity (a.u.).
With “CAGTTGCCGCTGATGCAATTCATCGCCCTCCTCTTGTTAGCGGAGTCACCTAGTGCAG”, the binding signal is 8030 fluorescence intensity (a.u.).
Regarding “TATATATATATATATATATAGATTTATTGACATCTATATGCGGAGTCACCTAGTGCAG”, the binding signal was 9230 fluorescence intensity (a.u.).
Take “TTCTCTCTGCCCGTGCCAATCTTCCTTTCCCACATCCTCCCGGAGTCACCTAGTGCAG”: the binding signal was 10300 fluorescence intensity (a.u.).
Regarding “GCCCGCGCGAAATGACGCTACTACCCTCGTTGCTCTTATCCGGAGTCACCTAGTGCAG”, the binding signal was 9540 fluorescence intensity (a.u.).
On to “TATTCACCTATGTTTTTGTTAGTCTATTTTATTTCCCTAGCGGAGTCACCTAGTGCAG”, for which the binding signal is 8120 fluorescence intensity (a.u.).
On to “GCTAGTACTACCTTCATATTTAAATACACGACTTTATTCTCGGAGTCACCTAGTGCAG”, for which the binding signal was 9250 fluorescence intensity (a.u.).
The figure for “CTCCTGTGTTCATATGCCTCACCAAGCTGCGAGTTGCAGACGGAGTCACCTAGTGCAG” is 10500 fluorescence intensity (a.u.); for “AATTAATTTTATGTTATAGATGTTGCTAATTTTTTCTTTACGGAGTCACCTAGTGCAG” it is 8090 fluorescence intensity (a.u.); for “TTTTCTCTCCTGTTTTGGGAGGGTTTTCCACGTTAAATCTCGGAGTCACCTAGTGCAG” it is 8230 fluorescence intensity (a.u.).
With “CATCCGGATCCAAAGCCTCGTTTGACCGTGTCTTACCTACCGGAGTCACCTAGTGCAG”, the binding signal was 9730 fluorescence intensity (a.u.).
In the case of “TTTTATGACTATTTTTATCCTTACATGTAAAGATGTACGTCGGAGTCACCTAGTGCAG”, the binding signal was 8260 fluorescence intensity (a.u.).
The figure for “ACCATCTCTTCGCAGATCCACCTGCTCCGCCGCCGCCGCCCGGAGTCACCTAGTGCAG” is 9020 fluorescence intensity (a.u.).
Regarding “ATATACTCCTACCGTTTTTAATACATGACACCGTTAACTTCGGAGTCACCTAGTGCAG”, the binding signal is 8800 fluorescence intensity (a.u.).
As for “GTTTTCTTGTACAGTAGTGTGTGCGCACTTATGTTGACTACGGAGTCACCTAGTGCAG”, the binding signal was 10700 fluorescence intensity (a.u.).
The figure for “TCATGGGCCAATGGCCATAATGAACGCGTTGACCTAAGTCCGGAGTCACCTAGTGCAG” is 9140 fluorescence intensity (a.u.); for “CAGCTTTTTCTTGTGTGTTGCGCTTTAGCCGGGCGATAGACGGAGTCACCTAGTGCAG” it is 9850 fluorescence intensity (a.u.).
As for “GACTACCTACCACCCTTTCTTAGGACAGGTTAACTGGACACGGAGTCACCTAGTGCAG”, the binding signal was 8590 fluorescence intensity (a.u.).
As for “TTCAAATTTTCCCTTAGTTTTCATCTCCTTTGAAATTCCACGGAGTCACCTAGTGCAG”, the binding signal is 9010 fluorescence intensity (a.u.).
Turning to “TCGTTCCTTCCTGTTGTTTCCTTTTCTTTTCCTTTATTTTCGGAGTCACCTAGTGCAG”, the binding signal is 8070 fluorescence intensity (a.u.).
Take “CAGCCGATGCACAGTTCGTTTTGGCAAGATTCAATTTCCTCGGAGTCACCTAGTGCAG”: the binding signal is 8430 fluorescence intensity (a.u.).
In the case of “CAGCATTATCTTCTCAGTCTTGTTCTCCCTTCACAGTTTCCGGAGTCACCTAGTGCAG”, the binding signal was 8760 fluorescence intensity (a.u.).
As to “CTCCACCCCATCCGCGCCGCTCGCTGTTTTCCTCCACCGCCGGAGTCACCTAGTGCAG”, the binding signal is 13300 fluorescence intensity (a.u.).
Take “GAAGAAGCGGTGTGGTTCACTTTTGCAAATTCCACCCTGACGGAGTCACCTAGTGCAG”: the binding signal is 8340 fluorescence intensity (a.u.).
On to “AGCAACTTTTTCCATGTCTGTCACTGTCACTAGAAGAAGCCGGAGTCACCTAGTGCAG”, for which the binding signal is 8790 fluorescence intensity (a.u.).
Then “ACAGGGGCAGGGGTCATGTGGTGGAGGTAATCAATTAATCCGGAGTCACCTAGTGCAG”, with 9260 fluorescence intensity (a.u.); and “ATAATTCGTCCCCAAGTTTCCAGCCCAACCCAAATCGCGGCGGAGTCACCTAGTGCAG”, with 8260 fluorescence intensity (a.u.).
Take “GGAATTAGGGTTTAGGGTTTGCTTTATCGTGCAAACACCTCGGAGTCACCTAGTGCAG”: the binding signal is 9070 fluorescence intensity (a.u.).
As to “GCTTTCTAGTTTTATTTTGACACTTCCCTTAACTAGTGTACGGAGTCACCTAGTGCAG”, the binding signal is 8350 fluorescence intensity (a.u.).
With “GTGAGTGCGCATCCGCCCCTGATTCCCAACTTGCGCCTGCCGGAGTCACCTAGTGCAG”, the binding signal was 8940 fluorescence intensity (a.u.).
For the sequence “CCCCTCACCTTCTCCGGCGATCGCCGCCGCGTCCGTACACCGGAGTCACCTAGTGCAG”, the binding signal is 8020 fluorescence intensity (a.u.).
Regarding “GGAGGGTCTGTTTTCTTGTGTGCGAGCCTTGCTAGTTGCTCGGAGTCACCTAGTGCAG”, the binding signal is 16500 fluorescence intensity (a.u.).
Take “CTAAGTACCCTGACATTACCAACGTTCATCTCCACGGCACCGGAGTCACCTAGTGCAG”: the binding signal is 10000 fluorescence intensity (a.u.).
